Measurements from publication PMC10499988 (Nature Communications, 2023).
These are yes or no findings as the source states them, for the method shown. Some binding calls cover weakened binding; strength is not graded here.

Chains of the proteins cited; added tags and fusions are not shown. Residues count along the entry.
UniProt P02768, residues 25-609: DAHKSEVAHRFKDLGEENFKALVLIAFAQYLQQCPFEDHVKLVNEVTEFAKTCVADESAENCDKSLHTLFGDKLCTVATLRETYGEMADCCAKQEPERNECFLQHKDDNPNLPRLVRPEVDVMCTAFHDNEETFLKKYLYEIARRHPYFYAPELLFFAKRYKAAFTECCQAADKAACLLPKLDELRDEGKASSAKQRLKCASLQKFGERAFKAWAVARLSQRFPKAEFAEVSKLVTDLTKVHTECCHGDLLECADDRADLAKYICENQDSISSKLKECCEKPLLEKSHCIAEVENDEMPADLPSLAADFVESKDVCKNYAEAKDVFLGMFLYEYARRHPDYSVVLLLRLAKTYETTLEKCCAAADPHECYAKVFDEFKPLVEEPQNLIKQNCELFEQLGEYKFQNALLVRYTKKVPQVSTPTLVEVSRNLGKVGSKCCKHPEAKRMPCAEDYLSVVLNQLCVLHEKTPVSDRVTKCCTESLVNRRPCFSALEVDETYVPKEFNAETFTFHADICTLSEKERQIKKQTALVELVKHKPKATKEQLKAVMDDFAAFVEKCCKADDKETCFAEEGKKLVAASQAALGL

Biological target: Human Serum Albumin (HSA) (human) (UniProt P02768)
Experiment: ITC; peptides against HSA, SA-21 as control; complex multi-site behaviour, no affinity derived; both purified

binding: binds
Binder: RLIEDICLPRWGCLWEDD (N-terminal acetyl; C-terminal amide; macrocyclic peptide) [SA-21 (Ac-…-NH2)]
